Reference: publication PMC6317715
These are yes or no findings as the source states them, for the method shown. Binding seen in cells or lysates may run through a third protein. Some entries that bind do so weakly or less than the wild type. Sequences can lack the tags named with a protein.

T1: Myc-tagged taperin (mouse) (UniProt A2AI08)
T1 sequence: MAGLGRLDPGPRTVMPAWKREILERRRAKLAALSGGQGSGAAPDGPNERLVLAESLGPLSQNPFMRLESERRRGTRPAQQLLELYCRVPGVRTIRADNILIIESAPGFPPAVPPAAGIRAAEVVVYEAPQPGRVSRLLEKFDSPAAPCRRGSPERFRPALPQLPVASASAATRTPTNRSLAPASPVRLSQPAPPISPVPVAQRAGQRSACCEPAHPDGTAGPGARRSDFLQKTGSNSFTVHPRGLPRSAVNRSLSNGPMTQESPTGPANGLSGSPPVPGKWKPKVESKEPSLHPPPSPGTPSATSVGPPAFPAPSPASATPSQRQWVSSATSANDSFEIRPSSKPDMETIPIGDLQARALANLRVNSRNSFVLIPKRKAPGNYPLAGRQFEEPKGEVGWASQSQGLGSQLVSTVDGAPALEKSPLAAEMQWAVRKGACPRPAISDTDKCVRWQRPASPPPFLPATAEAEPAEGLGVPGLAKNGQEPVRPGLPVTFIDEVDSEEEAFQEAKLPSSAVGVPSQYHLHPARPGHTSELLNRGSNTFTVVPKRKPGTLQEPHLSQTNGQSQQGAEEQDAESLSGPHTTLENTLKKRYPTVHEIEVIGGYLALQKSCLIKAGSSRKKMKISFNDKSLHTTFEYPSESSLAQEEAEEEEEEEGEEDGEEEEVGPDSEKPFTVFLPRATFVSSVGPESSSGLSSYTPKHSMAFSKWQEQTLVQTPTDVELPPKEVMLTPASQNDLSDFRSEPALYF

T2: HA-tagged GRXCR2 (mouse) (UniProt Q3TYR5)
T2 sequence: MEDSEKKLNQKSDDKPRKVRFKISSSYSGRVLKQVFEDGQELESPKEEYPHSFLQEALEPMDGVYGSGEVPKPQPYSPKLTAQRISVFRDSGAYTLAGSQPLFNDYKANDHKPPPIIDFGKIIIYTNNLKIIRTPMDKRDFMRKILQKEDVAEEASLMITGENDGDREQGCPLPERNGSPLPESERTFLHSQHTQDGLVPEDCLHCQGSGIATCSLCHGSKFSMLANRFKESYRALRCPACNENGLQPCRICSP


Legend:
[1] = molecular target: T1, Myc-tagged taperin (mouse); assay: co-IP; extracts of co-transfected HEK293 cells; immunoprecipitation with Myc-antibody, western blot for the co-expressed GFP-tagged protein (Figure 2A and 2C)
[2] = molecular target: T2, HA-tagged GRXCR2 (mouse); assay: co-IP; extracts of co-transfected HEK293 cells; immunoprecipitation with HA-antibody, western blot for co-expressed Myc-taperin (Figure 2B)

| binding [1] | binding [2] | Binder |
| --- | --- | --- |
| binds |  | GFP-tagged GRXCR2 (protein, UniProt Q3TYR5 1-254) MEDSEKKLNQKSDDKPRKVRFKISSSYSGRVLKQVFEDGQELESPKEEYPHSFLQEALEPMDGVYGSGEVPKPQPYSPKLTAQRISVFRDSGAYTLAGSQPLFNDYKANDHKPPPIIDFGKIIIYTNNLKIIRTPMDKRDFMRKILQKEDVAEEASLMITGENDGDREQGCPLPERNGSPLPESERTFLHSQHTQDGLVPEDCLHCQGSGIATCSLCHGSKFSMLANRFKESYRALRCPACNENGLQPCRICSP |
|  | binds | Myc-tagged taperin (protein, UniProt A2AI08 1-749) MAGLGRLDPGPRTVMPAWKREILERRRAKLAALSGGQGSGAAPDGPNERLVLAESLGPLSQNPFMRLESERRRGTRPAQQLLELYCRVPGVRTIRADNILIIESAPGFPPAVPPAAGIRAAEVVVYEAPQPGRVSRLLEKFDSPAAPCRRGSPERFRPALPQLPVASASAATRTPTNRSLAPASPVRLSQPAPPISPVPVAQRAGQRSACCEPAHPDGTAGPGARRSDFLQKTGSNSFTVHPRGLPRSAVNRSLSNGPMTQESPTGPANGLSGSPPVPGKWKPKVESKEPSLHPPPSPGTPSATSVGPPAFPAPSPASATPSQRQWVSSATSANDSFEIRPSSKPDMETIPIGDLQARALANLRVNSRNSFVLIPKRKAPGNYPLAGRQFEEPKGEVGWASQSQGLGSQLVSTVDGAPALEKSPLAAEMQWAVRKGACPRPAISDTDKCVRWQRPASPPPFLPATAEAEPAEGLGVPGLAKNGQEPVRPGLPVTFIDEVDSEEEAFQEAKLPSSAVGVPSQYHLHPARPGHTSELLNRGSNTFTVVPKRKPGTLQEPHLSQTNGQSQQGAEEQDAESLSGPHTTLENTLKKRYPTVHEIEVIGGYLALQKSCLIKAGSSRKKMKISFNDKSLHTTFEYPSESSLAQEEAEEEEEEEGEEDGEEEEVGPDSEKPFTVFLPRATFVSSVGPESSSGLSSYTPKHSMAFSKWQEQTLVQTPTDVELPPKEVMLTPASQNDLSDFRSEPALYF |
| no binding |  | GRXCR1-GFP (protein, UniProt Q50H32 1-290) MLRRETKPESDRPRKVRFRIASSHSGRVLKEVYEDGQAPGSLDSECASICAIDGLSDSEGQQNGHIGSEDNEQEKDQDNLLVLARTASEKAFGTRRVNILSKNGTVRGVKYKVSAGQALFNNLTKVLQQPSADLEFDRVVIYTTCLRVVRTTFERCELVRKIFQNHRVKFEEKNIALNGDYGKELDERCRRVSEAPSLPVVFIDGHYLGGAEKILSMNESGELQDLLTKIERVQHPHECPSCGGFGFLPCSVCHGSKMSVFRNCFTDAFKALKCTACNENGLQRCKNCTC |
